PubChem BioAssay AID504791 – Drosophila RNAi Screening Center – 2011

Assay: 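Genes whose knock-down strengthens or weakens small-RNA reporter silencing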 (primary screen)
Cell system: Drosophila S2-derived reporter cells
Reagent: long dsRNA against Drosophila genes, about 150-250 ng dsRNA per well (siRNA assay); about 80-120 ng (miRNA assay)
Duration: about 5 days (siRNA assay); about 4 days (miRNA assay)
Challenge: copper sulfate induction of reporters: 25 µM (siRNA assay); 200 mM stated (miRNA assay), 1-2 days before reading
Measurement: 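Dual luciferase assay: Renilla to firefly signal ratio in each well, scaled to the mean ratio of its plate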
Rule for the call: 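First-pass picks had plate-scaled ratios over 1.5 for the siRNA assay, over 1.6 for the miRNA assay, or under 0.6; two distinct dsRNAs had to score alike on retest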
The screen tested about 23,000 reagents; this is a random part of those with a known target gene and a result. Over the whole deposit, 199 (0.86%) got an active call. 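Plate-scaled ratios behind the calls are not deposited; printed light signals are raw; many rows marked increased or decreased are still called inactive.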 Unmarked entries are inactive. Reagents against one gene are numbered here. Names joined by + are all predicted targets of the reagent. Not given: the direction of the score.

Silencing of CG11382 came out at: stable assay Renilla, run 1 (luminescence) = 6175; stable assay firefly, run 1 (luminescence) = 3.82e5.
Egfrap (EGFR adaptor protein) #1 scored stable assay Renilla, run 1 (luminescence) = 5792; stable assay firefly, run 1 (luminescence) = 4.84e5.
With knock-down of Egfrap (EGFR adaptor protein) #2, the screen gave stable assay Renilla, run 1 (luminescence) = 5923; stable assay firefly, run 1 (luminescence) = 5.54e5.
CG12011 gave stable assay Renilla, run 1 (luminescence) = 5631; stable assay firefly, run 1 (luminescence) = 3.43e5.
Against tub (tube) #1 the deposit lists stable assay Renilla, run 1 (luminescence) = 3731; stable assay firefly, run 1 (luminescence) = 4.07e5.
Against tub (tube) #2, the values are stable assay Renilla, run 1 (luminescence) = 3963; stable assay firefly, run 1 (luminescence) = 3.33e5.
After knock-down of CG42579 the results were stable assay Renilla, run 1 (luminescence) = 4395; stable assay firefly, run 1 (luminescence) = 4.09e5.
Against CG15650, the values are stable assay Renilla, run 1 (luminescence) = 6635; stable assay firefly, run 1 (luminescence) = 3.16e5.
For CG13796 + CG31904, the values are stable assay Renilla, run 1 (luminescence) = 9938; stable assay firefly, run 1 (luminescence) = 6.04e5.
nAChRbeta2 (nicotinic Acetylcholine Receptor beta2) gave stable assay Renilla, run 1 (luminescence) = 11552; stable assay firefly, run 1 (luminescence) = 4.42e5.
pns (pinstripe) scored stable assay Renilla, run 1 (luminescence) = 6054; stable assay firefly, run 1 (luminescence) = 2.89e5.
For Tsp2A (Tetraspanin 2A), the values are stable assay Renilla, run 1 (luminescence) = 5402; stable assay firefly, run 1 (luminescence) = 3.20e5.
For Nup160 + RfC38, the entry reads stable assay Renilla, run 1 (luminescence) = 9510; stable assay firefly, run 1 (luminescence) = 5.57e5.
Knock-down of CG13494 gave: stable assay Renilla, run 1 (luminescence) = 6986; stable assay firefly, run 1 (luminescence) = 4.59e5.
Against Trmt61 (tRNA methyltransferase 61), the entry reads stable assay Renilla, run 1 (luminescence) = 6299; stable assay firefly, run 1 (luminescence) = 2.97e5.
For CG30291, the values are stable assay Renilla, run 1 (luminescence) = 7234; stable assay firefly, run 1 (luminescence) = 4.27e5.
CG4267 gave stable assay Renilla, run 1 (luminescence) = 8363; stable assay firefly, run 1 (luminescence) = 3.76e5.
Depletion of Or59a (Odorant receptor 59a) resulted in: stable assay Renilla, run 1 (luminescence) = 6714; stable assay firefly, run 1 (luminescence) = 3.83e5.
After knock-down of Fen1 (Flap endonuclease 1), the screen gave stable assay Renilla, run 1 (luminescence) = 5986; stable assay firefly, run 1 (luminescence) = 3.65e5.
For eIF6 (eukaryotic translation initiation factor 6) the deposit lists stable assay Renilla, run 1 (luminescence) = 80866; stable assay firefly, run 1 (luminescence) = 1.07e6.
For Dronc (Death regulator Nedd2-like caspase), the values are stable assay Renilla, run 1 (luminescence) = 9362; stable assay firefly, run 1 (luminescence) = 6.09e5.
Depletion of CG11263 resulted in: stable assay Renilla, run 1 (luminescence) = 5951; stable assay firefly, run 1 (luminescence) = 4.09e5.
Silencing of Vamp7 (Vesicle-associated membrane protein 7) resulted in: stable assay Renilla, run 1 (luminescence) = 6407; stable assay firefly, run 1 (luminescence) = 4.27e5.
dyl (dusky-like) #1 gave stable assay Renilla, run 1 (luminescence) = 7796; stable assay firefly, run 1 (luminescence) = 3.31e5.
dyl (dusky-like) #2 scored stable assay Renilla, run 1 (luminescence) = 5982; stable assay firefly, run 1 (luminescence) = 4.08e5.
For TfIIS (RNA polymerase II elongation factor) the deposit lists stable assay Renilla, run 1 (luminescence) = 7363; stable assay firefly, run 1 (luminescence) = 1.36e6.
Against CG42544, the values are stable assay Renilla, run 1 (luminescence) = 5732; stable assay firefly, run 1 (luminescence) = 3.30e5.
Silencing of dgt3 (dim gamma-tubulin 3) resulted in: stable assay Renilla, run 1 (luminescence) = 10943; stable assay firefly, run 1 (luminescence) = 7.93e5.

Only “stable assay Renilla, run 1 (luminescence)” (2 entries from above):
Vamp7 (Vesicle-associated membrane protein 7): 6407
dyl (dusky-like) #1: 7796
